From patent US12697366B2, “Thermogenic compositions and methods” (Ohio State Innovation Foundation, priority 2016, dated 2026)
For some assays here: At least one peptide structure holds a part that was inferred or is arguable (an end, a ring closure or a residue). For some assays here: For at least one compound, name, drawing or mass did not settle the structure.

How the values were obtained:
[1] = system: iAb (omental) fat explants; assay: LEP release from iAb (omental) fat explants of an obese patient (ELISA); assay type: cell-based, human; conditions: EGFR-I, MAPK-I, PI3K-I
Procedure: FIGS. 14A to 14N show EREG induces expression of thermogenic and PPARα-target genes, suppresses inflammatory genes, and stimulates leptin secretion. FIGS. 14A to 14H and 14L: Markers for thermogenesis, adipogenesis, and inflammatory genes were analyzed using homogenates from whole iAb fat pads isolated from Veh- (white bars) and EREG-treated (black bars) DIO mice (Study 3). Gene expression was quantified using a customized NanoString panel. Data represent mean±SD, n.s.,—non-significant. FIG. 14I: LEP was measured in plasma in the same mice by ELISA. Data (mean±SD) are shown as percent to control (Veh, 100%) and is indicated as a dashed line. FIG. 14J: LEP release after stimulation with different concentrations of recombinant human EREGs was measured in explants of iAb (omental) tissue obtained from an obese insulin resistant patient. FIG. 14K: LEP release after stimulation of explants from same donor with and without EREG (50 ng/mL) in the presence and absence of insulin (Ins, 10 μg/mL), MAPK-I, EGFR-I, PI3K-I. Inhibitors concentrations were described in FIG. 1. FIG. 14M: LEP release after stimulation of iAb fat explants (2 h) from WT mice with different concentrations of recombinant mouse EREG. Experiment was repeated in three different WT mice. Data (mean±SD) are shown as percent to control (Veh, 100%). […]

PPARα-LBD = PPARα-LBD luciferase reporter in transiently transfected HEK293 cells; assay type: cell-based, human; conditions: EREG 50 ng/mL; EGFR-I 10 μM, MAPK-I 10 μM, HSL-I 10 μM, SRC-I 1 μM, PI3K-I 100 nM
Procedure: FIGS. 11A to 11I show adipokine Ereg is bilaterally associated with obesity and thermogenesis and activates PPARα. […] Microarray gene analysis was performed using Affymetrix microarray. FIG. 11B: Ereg expression was measured in non-differentiated and differentiated (day 5) 3T3-L1 adipocytes (Mann-Whitney test) using a customized NanoString mouse panel. FIG. 11C: Ereg expression was measured in differentiated (day 5) 3T3-L1 and Aldh1a1^−/− adipocytes by Taqman and normalized to TATA box protein (TBP). FIG. 11D: Plasma EREG concentrations were measured in mice from Study 1 by western blot. […] FIG. 11E: Plasma EREG concentrations were measured and quantified in iAb of WT and ob/ob mice from Study 2 by western blot (n=5 per each group). […] FIG. 11F: EREG was measured in iAb, subcutaneous and brown fat by western blot. Fat pads were dissected from WT mice on regular chow (Study 1). FIG. 11G: Ucp2 and Ucp1 expression was measured in differentiated 3T3-L1 adipocytes (day 5) stimulated with vehicle (PBS) or recombinant EREG (50 ng/mL) added in the differentiation medium I and II. Expression level were measured by Taqman and normalized by TBP. […]
HEK293 cells ([…] cells, 24-well plates) were used for transient transfection experiments. […] Luciferase was measured using Promega assay according to manufacturer's instructions

3T3-L1 preadipocytes = assay: FD-glucose uptake in 3T3-L1 preadipocytes; assay type: cell-based, mouse
Procedure: Non-differentiated, 90% confluent 3T3-L1 cells were starved with glucose-deprived medium for 40 min. Then cells were treated in the presence and absence of different concentrations of nanoscaffold #2 and bovine insulin (200 μg/mL), all of reagents dissolved in the same glucose-deprived medium but containing fluorescent-D (FD)-glucose for 80 min. Thereafter, the FD glucose uptake was measured according to manufacturer's instructions (Cayman Chemical, USA, cat #600471). […] Non-differentiated, 90% confluent 3T3-L1 cells treated in the presence and absence of different concentrations of nanoscaffold #2 and bovine insulin (10 μg/mL) or mouse epiregulin (EREG, 0.05 μg/mL) and incubated for 24 h. […] Thereafter, the FD glucose uptake was measured according to manufacturer's instructions (Cayman Chemical, USA, cat #600471). […]
Non-differentiated, 90% confluent 3T3-L1 cells treated in the presence of bovine insulin (10 μg/mL), mouse epiregulin (EREG, 0.05 μg/mL), or their combinations and incubated for 24 h. […] Thereafter, the FD glucose uptake was measured according to manufacturer's instructions (Cayman Chemical, USA, cat #600471).
Non-differentiated, 90% confluent 3T3-L1 cells were starved with glucose-deprived medium for 50 min. […] Thereafter, the FD glucose uptake was measured according to manufacturer's instructions (Cayman Chemical, USA, cat #600471). […]

GLUT4 = assay: GLUT4-GFP translocation in transfected NIH-3T3 cells (confocal microscopy); assay type: cell-based; conditions: insulin 10 μg/mL, nanoscaffold 10 μM
Description: FIGS. 30A to 30D show translocation of GLUT4 (the major glucose transporter of adipocytes). Non-differentiated NIH-3[…][…]-GFP plasmid ([…] #52872) on Petri-35 dishes with coverslip ([…], cat #[…]-1.5-14-C, USA). […] FIG. 30A: GLUT4 (white vesicles) in cells (arrow) treated with vehicle are mainly in the cytosol. […] All images were taken at 60× magnification.

COC[C@H]1OC(=O)c2coc3c2[C@@]1(C)C1=C(C3=O)[C@@H]2CCC(=O)[C@@]2(C)C[C@H]1OC(C)=O [PI3K inhibitor, Wortmannin]
EREG / insulin mediated LEP release in the presence of inhibitor [1]: inhibited | EREG-dependent PPARα-LBD activation in the presence of inhibitor (PPARα-LBD): now effect

CCN(CC)c1ccc2cc(C(=O)NCCCC[C@H](NC(=O)[C@H](CCCCN)NC(=O)OCC3c4ccccc4-c4ccccc43)C(N)=O)c(=O)oc2c1 [nanoscaffold #2, Fmoc-KK(DAC)]
efficacy of IGFBP4 on glucose uptake in the presence of nanoscaffold (3T3-L1 preadipocytes; 90 min): improved | improvement of efficacy and stability of insulin (FD glucose uptake) (3T3-L1 preadipocytes; bovine insulin 200 μg/mL with nanoscaffold #2, 80 min): 5 fold | GLUT4 translocation (GLUT4): did not show GLUT4 translocation
